Article PMC6473174, “Ranking Hits From Saturation Transfer Difference Nuclear Magnetic Resonance–Based Fragment Screening” (Frontiers in Chemistry, 2019)

Molecular target: T1, murine langerin (Mus musculus, UniProt Q8VBX4)
T1 sequence (Q8VBX4 1-331): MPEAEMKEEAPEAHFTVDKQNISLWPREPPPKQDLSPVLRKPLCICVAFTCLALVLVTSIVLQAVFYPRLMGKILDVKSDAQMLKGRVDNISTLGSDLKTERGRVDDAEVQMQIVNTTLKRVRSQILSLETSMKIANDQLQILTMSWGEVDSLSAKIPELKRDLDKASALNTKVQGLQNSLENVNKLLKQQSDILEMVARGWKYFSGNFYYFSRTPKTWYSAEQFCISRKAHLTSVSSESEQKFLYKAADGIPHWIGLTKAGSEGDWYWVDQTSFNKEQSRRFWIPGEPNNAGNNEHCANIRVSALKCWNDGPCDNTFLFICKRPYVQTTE
Experiment: STD NMR measurements (fragment screening and epitope mapping), STD amplification factor
Type: binding
Settings: Figure 1a fragment screening; [P] = 10 μM, [L] = 0.2 mM, tsat = 4 s
Method: STD NMR experiments were performed as described elsewhere (Aretz et al., [2018]). Briefly, 10 μM murine langerin was screened against a library of 660 fragments at a ligand concentration [L] = 0.2 mM using a saturation time of tsat = 4 s. Hits were counter-screened by SPR (see the section Estimation of Affinity Using Surface Plasmon Resonance), enabling affinity estimation and hit validation. For SPR-validated hits, the STD amplification factor was determined as reported earlier (Mayer and Meyer, [2001]) and plotted against affinity (Figure 1A). For epitope mapping of thiazolopyrimidine derivatives (Figure 2E), protein concentration was [P] = 20 μM, ligand concentration was [L] = 0.5–1 mM, and tsat = 1 s. Affinity of all derivatives was estimated by SPR (see the section Estimation of Affinity Using Surface Plasmon Resonance), and the STD amplification factor was determined as reported earlier for the proton in the 7-position of the thiazolopyrimidine scaffold (Mayer and Meyer, [2001]). Spectra were analyzed in MestReNova 10.0.0.

`COC(=O)c1ccc(NC(C)=O)cc1O` [S9] showed an STD amplification factor of 31.
